Among the data in PMC2726434 are binding values, retold here.

These are yes or no findings as the source states them, for the method shown. In cells and extracts the contact can be indirect. Some results given as binding are weak or reduced against the parent protein; the word gives no strength. Where a sequence is shown, tags or fusion partners need not be part of it.

Holding throughout (assay): co-IP; anti-HA, anti-Cdc10p or anti-myc immunoprecipitates from S. pombe cell extracts, TAP purification buffers; 10% SDS-PAGE and Western blot with anti-HA, anti-myc and anti-Cdc10p antibodies
On the technique in general: A western blot detects proteins with antibodies after separation by electrophoresis.

The target in assay [1] is T1, Cdc10p (S. pombe (endogenous in S. pombe cells)) (UniProt P01129).
T1 sequence: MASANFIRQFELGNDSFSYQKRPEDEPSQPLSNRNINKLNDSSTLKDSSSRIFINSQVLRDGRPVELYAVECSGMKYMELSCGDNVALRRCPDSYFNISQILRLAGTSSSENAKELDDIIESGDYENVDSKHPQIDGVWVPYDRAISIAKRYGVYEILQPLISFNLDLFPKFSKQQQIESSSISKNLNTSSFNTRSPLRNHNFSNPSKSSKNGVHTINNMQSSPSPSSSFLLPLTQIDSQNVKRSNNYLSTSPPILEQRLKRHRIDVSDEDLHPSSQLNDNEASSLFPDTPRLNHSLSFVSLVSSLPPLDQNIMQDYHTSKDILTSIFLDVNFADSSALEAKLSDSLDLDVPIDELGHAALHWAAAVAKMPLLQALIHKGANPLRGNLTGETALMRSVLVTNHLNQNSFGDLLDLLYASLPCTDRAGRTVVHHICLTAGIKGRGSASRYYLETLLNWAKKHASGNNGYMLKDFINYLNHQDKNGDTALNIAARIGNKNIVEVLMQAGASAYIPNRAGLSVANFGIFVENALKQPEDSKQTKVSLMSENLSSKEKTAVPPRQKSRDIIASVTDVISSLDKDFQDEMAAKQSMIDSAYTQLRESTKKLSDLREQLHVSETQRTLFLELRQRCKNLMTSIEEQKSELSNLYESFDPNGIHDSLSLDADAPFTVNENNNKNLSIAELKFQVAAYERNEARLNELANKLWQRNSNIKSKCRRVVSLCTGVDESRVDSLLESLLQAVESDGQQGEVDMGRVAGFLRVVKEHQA

The target of assay [2] is T2, Res2p-myc (myc tagged Res2p) (S. pombe) (UniProt P41412).
T2 sequence: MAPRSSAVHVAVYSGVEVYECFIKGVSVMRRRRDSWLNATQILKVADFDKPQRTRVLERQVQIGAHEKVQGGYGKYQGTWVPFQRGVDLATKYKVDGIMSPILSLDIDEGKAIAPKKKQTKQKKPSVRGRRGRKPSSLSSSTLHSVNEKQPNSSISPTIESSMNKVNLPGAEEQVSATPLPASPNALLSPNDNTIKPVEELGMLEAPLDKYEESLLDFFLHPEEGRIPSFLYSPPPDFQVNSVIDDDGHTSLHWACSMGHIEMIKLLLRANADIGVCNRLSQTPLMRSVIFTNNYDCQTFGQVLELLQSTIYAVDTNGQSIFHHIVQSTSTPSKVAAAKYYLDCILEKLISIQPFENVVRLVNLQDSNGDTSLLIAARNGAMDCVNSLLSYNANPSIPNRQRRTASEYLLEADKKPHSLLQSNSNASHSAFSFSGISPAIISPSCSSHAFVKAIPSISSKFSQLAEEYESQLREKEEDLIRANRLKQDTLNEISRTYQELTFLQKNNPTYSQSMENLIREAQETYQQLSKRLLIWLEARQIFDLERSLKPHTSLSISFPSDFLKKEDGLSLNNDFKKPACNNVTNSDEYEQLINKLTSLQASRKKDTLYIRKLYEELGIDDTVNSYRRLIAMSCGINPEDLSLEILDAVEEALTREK

The target in assay [3] is T3, Yox1p-HA (Yox1p C-terminally tagged with a 3HA epitope) (S. pombe) (UniProt P40923).
T3 sequence: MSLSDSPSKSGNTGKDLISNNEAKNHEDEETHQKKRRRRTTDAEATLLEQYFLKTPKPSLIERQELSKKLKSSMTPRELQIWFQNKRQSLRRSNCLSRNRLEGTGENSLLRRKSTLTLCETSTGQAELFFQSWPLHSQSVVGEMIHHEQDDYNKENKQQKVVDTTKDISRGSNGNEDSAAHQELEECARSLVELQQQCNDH

B1: Yox1p-HA (Yox1p C-terminally tagged with a 3HA epitope) (protein, UniProt P40923 1-201)
chain: MSLSDSPSKSGNTGKDLISNNEAKNHEDEETHQKKRRRRTTDAEATLLEQYFLKTPKPSLIERQELSKKLKSSMTPRELQIWFQNKRQSLRRSNCLSRNRLEGTGENSLLRRKSTLTLCETSTGQAELFFQSWPLHSQSVVGEMIHHEQDDYNKENKQQKVVDTTKDISRGSNGNEDSAAHQELEECARSLVELQQQCNDH
As to B1, the binding result in assay [1] and in assay [2] was “binds” each time.

B2: Cdc10p (protein, UniProt P01129 1-767)
chain: MASANFIRQFELGNDSFSYQKRPEDEPSQPLSNRNINKLNDSSTLKDSSSRIFINSQVLRDGRPVELYAVECSGMKYMELSCGDNVALRRCPDSYFNISQILRLAGTSSSENAKELDDIIESGDYENVDSKHPQIDGVWVPYDRAISIAKRYGVYEILQPLISFNLDLFPKFSKQQQIESSSISKNLNTSSFNTRSPLRNHNFSNPSKSSKNGVHTINNMQSSPSPSSSFLLPLTQIDSQNVKRSNNYLSTSPPILEQRLKRHRIDVSDEDLHPSSQLNDNEASSLFPDTPRLNHSLSFVSLVSSLPPLDQNIMQDYHTSKDILTSIFLDVNFADSSALEAKLSDSLDLDVPIDELGHAALHWAAAVAKMPLLQALIHKGANPLRGNLTGETALMRSVLVTNHLNQNSFGDLLDLLYASLPCTDRAGRTVVHHICLTAGIKGRGSASRYYLETLLNWAKKHASGNNGYMLKDFINYLNHQDKNGDTALNIAARIGNKNIVEVLMQAGASAYIPNRAGLSVANFGIFVENALKQPEDSKQTKVSLMSENLSSKEKTAVPPRQKSRDIIASVTDVISSLDKDFQDEMAAKQSMIDSAYTQLRESTKKLSDLREQLHVSETQRTLFLELRQRCKNLMTSIEEQKSELSNLYESFDPNGIHDSLSLDADAPFTVNENNNKNLSIAELKFQVAAYERNEARLNELANKLWQRNSNIKSKCRRVVSLCTGVDESRVDSLLESLLQAVESDGQQGEVDMGRVAGFLRVVKEHQA
With B2, the binding result in assay [3] is “binds”.
